# This is one part of the list.
# The chains behind the UniProt entries cited, without tags or fusion partners.
# UniProt Q0JBA9, entry or part of it: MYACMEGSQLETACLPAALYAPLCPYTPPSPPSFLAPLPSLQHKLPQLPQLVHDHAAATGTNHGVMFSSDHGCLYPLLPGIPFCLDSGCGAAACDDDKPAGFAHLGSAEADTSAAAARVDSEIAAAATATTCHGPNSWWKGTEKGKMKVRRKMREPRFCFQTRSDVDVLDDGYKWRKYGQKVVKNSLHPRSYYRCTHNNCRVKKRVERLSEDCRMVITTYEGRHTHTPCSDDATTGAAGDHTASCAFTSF
# Target: OsWRKY34 (Oryza sativa, UniProt Q0JBA9 1-250)
# Experiment: protein-binding microarray (RPBM); PBS, 2% BSA, 51.3 ng/ul salmon testes DNA, 50 uM zinc acetate, 200 nM TF, 25 C, 1 h; high values mean tight binding
# Conditions: protein: recombinant; tags: N-terminal polyhistidine and DsRed monomer fusion (pET32a); label: CyDye5-dUTP incorporated in the synthesized complementary strand; 3' TTTTT single-stranded linker to array surface; dsDNA, one strand shown
# Outline: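 Transcription factors, each fused N-terminally to a polyhistidine tag and DsRed, were expressed in E. coli BL21-CodonPlus and purified on Ni–NTA. A custom Agilent array was made double-stranded by primer extension with Cy5-dUTP and blocked with 2% BSA. It was incubated with 200 nM protein in PBS, 2% BSA, salmon testes DNA and 50 µM zinc acetate at 25 °C for 1 h, then washed. The binding signal is per-feature fluorescence intensity (arbitrary units) read on an Axon 4000B scanner.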
row,Sequence,binding signal
1,TACTATAGTTTATTTTCCAGCGTTGTCTTTAAATTGTTAACGGAGTCACCTAGTGCAG,8240 fluorescence intensity (a.u.)
2,AGATTTTAAACTTTTTGCTCTGTCATGCATGCATAAATATCGGAGTCACCTAGTGCAG,9500 fluorescence intensity (a.u.)
3,CTTCAAGTCTATCTCTTTCATCCGATTTATGCATTTTCTCCGGAGTCACCTAGTGCAG,9000 fluorescence intensity (a.u.)
4,TTTGCCTACATTTAATGTTTTATACATATGTCCAAACATTCGGAGTCACCTAGTGCAG,8200 fluorescence intensity (a.u.)
5,AACATTGTTTTGCATCGTTCAGATATATCTCTGATCTTTTCGGAGTCACCTAGTGCAG,8840 fluorescence intensity (a.u.)
6,AAATGCCAAATGACAACTTGCCAACTTTTTCTACTATTGTCGGAGTCACCTAGTGCAG,8860 fluorescence intensity (a.u.)
7,TGATGACTTTTTTGCATGTCCCTTATTTAATCTTAATTTTCGGAGTCACCTAGTGCAG,9280 fluorescence intensity (a.u.)
8,GAGGTGGCTTTGGCGGCGGAGTGGGAGGCGGTGGTGGTGGCGGAGTCACCTAGTGCAG,10000 fluorescence intensity (a.u.)
9,TTAGGTTGATGTGATGGCTAATTTATACAATAATATCTTACGGAGTCACCTAGTGCAG,9430 fluorescence intensity (a.u.)
10,TTCACATTTCTCACATACATCCACTACTTATTCAATCACACGGAGTCACCTAGTGCAG,8390 fluorescence intensity (a.u.)
11,TTGTTCCTCTTCCGCCGCCGGACTTGTTTCCTCTCCCGCGCGGAGTCACCTAGTGCAG,10300 fluorescence intensity (a.u.)
12,TACTAGCTTCTAATTACATTTGCTCCTAACTTTTCTTCAACGGAGTCACCTAGTGCAG,9510 fluorescence intensity (a.u.)
13,GTGTTGAAAAACCTTGTCCGATCCTACATGTATGCTTTACCGGAGTCACCTAGTGCAG,10300 fluorescence intensity (a.u.)
14,CTTTTCATCTTCTTGACGACTTGGTTGTTTGATTCATTTACGGAGTCACCTAGTGCAG,8830 fluorescence intensity (a.u.)
15,AACCCTCTTGACCCTTGTCGTCTCCGCACCGCAGCCGCCGCGGAGTCACCTAGTGCAG,9750 fluorescence intensity (a.u.)
16,CCACGTCTCCGTCTGTTTGCGGCTCAAGGTTTCAGCGATGCGGAGTCACCTAGTGCAG,10800 fluorescence intensity (a.u.)
17,CTCTCTATCTCTATCCATTCTTCTCGCATGCCACTGACCACGGAGTCACCTAGTGCAG,9770 fluorescence intensity (a.u.)
18,ATGAAGACACAAATCCACTCCCTACTTGCTTTCACTGTCACGGAGTCACCTAGTGCAG,8400 fluorescence intensity (a.u.)
19,GGCGCGGGAAGCGGGTGGGGCCATATGGCAGCGAGACAGCCGGAGTCACCTAGTGCAG,9310 fluorescence intensity (a.u.)
20,TCTGCTGCTACTGCTCCTCTCCTTCCATGGTGGTCGCCCACGGAGTCACCTAGTGCAG,10100 fluorescence intensity (a.u.)
21,GCGTCTCTACTCCTCTCCCTGCATCTGGTATACGTATCTTCGGAGTCACCTAGTGCAG,10400 fluorescence intensity (a.u.)

row,Sequence,binding signal
1,CCTCTGGCTACTTCAGCTGCTGCCTGCCAAGCAACACACTCGGAGTCACCTAGTGCAG,8280 fluorescence intensity (a.u.)
2,CACCCTGCGTACGTACTACATGTTAGCCTTATCACACAATCGGAGTCACCTAGTGCAG,15900 fluorescence intensity (a.u.)
3,CACTCCACTCCAGTCCTTGTCCATTGCCAATTCACCCCTCCGGAGTCACCTAGTGCAG,12000 fluorescence intensity (a.u.)
4,GCCTAGGTCTACAGTTCACTCGCTATCCACGCACAGCCCGCGGAGTCACCTAGTGCAG,8830 fluorescence intensity (a.u.)
5,CCCGTCATTGACTACGGTTGACCAAAGTTGAAACGGGGACCGGAGTCACCTAGTGCAG,9440 fluorescence intensity (a.u.)
6,ATTATATTTTAGGTCGCATTTTGATTCTTTTCATGTAATCCGGAGTCACCTAGTGCAG,8660 fluorescence intensity (a.u.)
7,ACCTGTTCTTCTGGCGCCCCAACCACAGAGTTAAAAGGTGCGGAGTCACCTAGTGCAG,9260 fluorescence intensity (a.u.)
8,TATGTGTGTTCTAGTTGTTTGATGCTTTCTTAAGATTTAGCGGAGTCACCTAGTGCAG,10300 fluorescence intensity (a.u.)
9,TCATTGCCCTGTCGCTGACCCTGCGCACCGCCGGCTTCCTCGGAGTCACCTAGTGCAG,11600 fluorescence intensity (a.u.)
10,AGGCGAGCGAGGCGGGTGGGCGGGGAGCGAACCAACGACGCGGAGTCACCTAGTGCAG,8840 fluorescence intensity (a.u.)
11,CTATTATCCTTTGCATGCCCCTCTCCAGCTGCTTCATCTGCGGAGTCACCTAGTGCAG,8110 fluorescence intensity (a.u.)
12,CGTGCGGGGATGCTTGGATGTGGGAAGGTGGGATAGGAGACGGAGTCACCTAGTGCAG,9820 fluorescence intensity (a.u.)
13,CGTGCATCTTCCCGGCCTCTTTACTCTGGTGTTGTGAGACCGGAGTCACCTAGTGCAG,9270 fluorescence intensity (a.u.)
14,TGTGGGCCCAAAATTCGAATCACATATTTAACAGGGGAGGCGGAGTCACCTAGTGCAG,8670 fluorescence intensity (a.u.)
15,ATCTTTGGTACAATGTACTAGTCCTACCACTCCTACTTAACGGAGTCACCTAGTGCAG,8180 fluorescence intensity (a.u.)
16,CAAACTTCTAACTTTTCCGTCGCATTGTTCTAATTTCAACCGGAGTCACCTAGTGCAG,9910 fluorescence intensity (a.u.)
17,CACATTGCGTCTTGTAGTCTGTATTGTAGCTGACTATATACGGAGTCACCTAGTGCAG,8820 fluorescence intensity (a.u.)
18,TTTGCACGGTTTTTCATGGTTTTTCACGGTTACCGCGGTACGGAGTCACCTAGTGCAG,10100 fluorescence intensity (a.u.)
19,TGCGGGATTACGGAATGGGGTTTGATGGGAGTTGCGTCATCGGAGTCACCTAGTGCAG,9240 fluorescence intensity (a.u.)
20,AGTATTCTCCTTTTAAATTGGCCCCGTTCCTTCCATTCTCCGGAGTCACCTAGTGCAG,11900 fluorescence intensity (a.u.)
21,CTTTGCTCGAAACGATCGGTCAATCGGTATGTACTTCTCACGGAGTCACCTAGTGCAG,10800 fluorescence intensity (a.u.)

# As entered above:
# binding signal with CTTTTCATCTTCTTGACGACTTGGTTGTTTGATTCATTTACGGAGTCACCTAGTGCAG is entered as 8830 fluorescence intensity (a.u.)
# binding signal with TACTATAGTTTATTTTCCAGCGTTGTCTTTAAATTGTTAACGGAGTCACCTAGTGCAG is entered as 8240 fluorescence intensity (a.u.)
# binding signal with AAATGCCAAATGACAACTTGCCAACTTTTTCTACTATTGTCGGAGTCACCTAGTGCAG is entered as 8860 fluorescence intensity (a.u.)
